# Laboratory results from PubChem BioAssay (EPA / NIEHS).
# The shares of active, inactive and inconclusive entries below differ from those in the screen. For some assays here: Where the call is inconclusive, the potency comes from a doubtful curve fit. Active and inactive are the calls of the source. The calls were made as follows: active = hit-call score of the fitted dose curve at least 0.9, where 1 is the maximum; inconclusive = response in the unintended direction; inactive = score below 0.9.
# Key:
# [1] = TOX21_TRB_BLA_Agonist_Followup_viability: Viability Assessment in the Tox21 Thyroid Hormone Receptor beta Agonism Beta-lactamase (BLA) Follow-Up Assay (AID 2283956)
# Outline: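 TRb-bla HEK293T cells (GAL4-DBD/human TRb LBD) in 2% charcoal-stripped FBS medium were exposed 18 h at 37C to 11 concentrations in triplicate. CellTiter-Glo ATP luminescence was read after 30 min at room temperature, with bidirectional fitting against DMSO.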
# [2] = TOX21_TR_RXR_BLA_Antagonist_Followup_viability: Viability Assessment in the Tox21 Thyroid Hormone Receptor beta Retinoid X Receptor alpha (RXRa) Antagonism Beta-lactamase (BLA) Follow-Up Assay (AID 2283979)
# Outline: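 RXRa-bla HEK293T cells (2,500/well, phenol red-free DMEM, 2% charcoal-stripped FBS) were attached 5 h, then exposed to compounds at 11 concentrations in triplicate for 16 h at 37C. Viability measured by CellTiter-Glo ATP luminescence, bidirectional fitting versus DMSO.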
# [3] = tested on: DIO1 (gene 1733); test: CCTE_GLTED_hDIO1: CCTE's human Deiodinase 1 (DIO1) Inhibition Assay, Great Lakes Toxicology and Ecology Division (GLTED) Lab (AID 2283987);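 also: isolated human DIO1 enzyme in a cell-free setup rather than cells; enzyme activity read as free iodide liberated from substrate via Sandell-Kolthoff colorimetry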
# Method: CCTE_GLTED_hDIO1 is a cell-free, single-readout assay designed to test the inhibitory activity of chemicals toward human iodothyronine Deiodinase type 1 (DIO1) enzyme. Enzyme is incubated in presence of test chemical for 3 hours during which uninhibited enzyme liberates free iodide from substrate. Free iodide is measured in a second step using the Sandell-Kolthoff method.CCTE_GLTED_hDIO1 is the assay component measured from the CCTE_GLTED_hDIO1 assay. It is designed to make measurements of enzyme activity, a form of enzyme reporter, as detected with absorbance signals by spectrophotometry.Data from the assay component CCTE_GLTED_hDIO1 was analyzed into 1 assay endpoint. This assay endpoint, CCTE_GLTED_hDIO1, was analyzed in the positive analysis fitting direction relative to DMSO as the negative control and baseline of activity. […] Furthermore, this assay endpoint can be referred to as a primary readout, because the performed assay has only produced 1 assay endpoint. […]
# […] assay, developed at Great Lakes Toxicology and Ecology Division (GLTED) within the EPA's Center for Computational Toxicology and Exposure (CCTE), is designed to test the chemicals' ability to inhibit DIO1. Assay is based on iodide release measured by the Sandell-Kolthoff method and is run in 96-well plate format with assay plates run in triplicate (n=3). […]
structure (smiles),measurement,setting,value
C=C(C)C(=O)[O][Sn]([CH2]CCC)([CH2]CCC)[CH2]CCC,AC50,[1],active: 7.08 µM
CCC[CH2][Sn]([CH2]CCC)([CH2]CCC)[CH2]CCC,outcome,[1],inactive
CCc1nn(C)c(C(=O)NCc2ccc(C(C)(C)C)cc2)c1Cl,AC50,[2],active: 7.74 µM
Oc1ccc(Cl)cc1Cc1ccccc1,AC50,[3],inconclusive: 100 µM
CC1(C(=O)Nc2ccc(O)c(Cl)c2Cl)CCCCC1,AC50,[3],inconclusive: 0.408 µM
